The list does not hold the whole screen: it is rich in T/C values a quarter to a half above the control, in often repeated tests (any T/C) and in doses without a T/C. Other doses and runs of a compound stand elsewhere. T/C is the treated group as % of the vehicle group. Some entries give survivors of the animals treated and no T/C: the source holds a T/C of zero for them, seemingly a mark for toxic or unscored doses. Some survivor counts are full or nearly so, which does not show that the dose was tolerated: the source hardly ever lists a survival T/C far under the control, and the zero likely stands for such cases as well. Survivors were counted at the toxicity check, usually on the fifth day, unless a day is given; later deaths do not show. Schedule codes are those of the source, taken here to give the interval after Q, in days (D) or hours (H), and the number of doses after X. For survival time, the PubChem record calls one and a half times the control and up active, and a quarter to a half above the control has no call in these data; cut-offs in other NCI protocols can differ. Some T/C values carry the count of animals alive at the toxicity check (mostly the fifth day); where none is given, no animal had died by that day. Some entries were tested several times; the results are listed from low to high.
System: CD2F1 mice, L1210 leukemia ip, survival T/C
Experiment: NCI In Vivo Anticancer Drug Screen. Data for tumor model L1210 Leukemia (intraperitoneal) in CD2F1 (CDF1) mice
Conditions: higher T/C = longer survival
In short: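 Vehicle-treated tumor-bearing mice served as controls (C) for compound-treated mice (T). Reported figure is T divided by C.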

[1] = T/C endpoint: mean survival time, dose: 200.0 mg/kg/injection, schedule: Q01DX009 (ip), vehicle: Klucel (hydroxypropylcellulose) (HPC)
[2] = T/C endpoint: mean survival time, dose: 40.0 mg/kg/injection, schedule: Q01DX009 (ip), vehicle: saline
[3] = T/C endpoint: mean survival time, dose: 60.0 mg/kg/injection, schedule: Q01DX009 (ip), vehicle: saline
[4] = T/C endpoint: mean survival time, dose: 100.0 mg/kg/injection, schedule: Q01DX001 (ip), vehicle: saline with Tween-80
[5] = T/C endpoint: mean survival time, dose: 200.0 mg/kg/injection, schedule: Q01DX001 (ip), vehicle: saline with Tween-80
[6] = T/C endpoint: mean survival time, dose: 200.0 mg/kg/injection, schedule: Q01DX009 (ip), vehicle: saline with Tween-80
[7] = T/C endpoint: mean survival time, dose: 200.0 mg/kg/injection, schedule: Q04DX003 (ip), vehicle: saline with Tween-80
[8] = T/C endpoint: mean survival time, dose: 400.0 mg/kg/injection, schedule: Q04DX003 (ip), vehicle: saline with Tween-80
[9] = T/C endpoint: median survival time, dose: 160.0 mg/kg/injection, schedule: Q01DX009 (ip), vehicle: Klucel (hydroxypropylcellulose) (HPC)
[10] = T/C endpoint: mean survival time, dose: 400.0 mg/kg/injection, schedule: Q01DX001 (ip), vehicle: saline with Tween-80

Compound: CC(=O)OCC1OC(N2C(=O)C=CC2=O)C(OC(C)=O)C1OC(C)=O (centres undefined)
- survivor count (T/C endpoint: mean survival time, dose: 25.0 mg/kg/injection, schedule: Q01DX005 (ip), vehicle: water): 0 of 3
- survivor count (T/C endpoint: mean survival time, dose: 50.0 mg/kg/injection, schedule: Q01DX005 (ip), vehicle: water): 0 of 3
- survivor count (T/C endpoint: mean survival time, dose: 100.0 mg/kg/injection, schedule: Q01DX005 (ip), vehicle: water): 0 of 3
- survivor count (T/C endpoint: mean survival time, dose: 200.0 mg/kg/injection, schedule: Q01DX005 (ip), vehicle: water): 0 of 3

Compound: COc1ccc(N=NN(C)C(=O)c2ccccc2)cc1
- T/C [1]: 136 % of control

Compound: CCCCN(CCCC)C(Cl)=Nc1ccccc1
- survivor count [1]: 3 of 6

Compound: COc1cc2cc[n+]3c(C)c4ccc(OC)c(OC)c4cc3c2cc1OC (tested in a mixture with another compound)
- T/C (T/C endpoint: mean survival time, dose: 10.0 mg/kg/injection, schedule: Q01DX009 (ip), vehicle: saline): 106, 111 [5 of 6 alive], 119, 128 % of control
- T/C (T/C endpoint: mean survival time, dose: 20.0 mg/kg/injection, schedule: Q01DX009 (ip), vehicle: saline): 101, 115 [5 of 6 alive], 126 [5 of 6 alive], 136 % of control
- T/C [2]: 107, 125 [5 of 6 alive], 142 % of control
- survivor count [2]: 5 of 6
- T/C [3]: 148 % of control [5 of 6 alive]
- survivor count [3]: 2 of 6

Compound: O=C(O)CO.[NH2-].[NH2-].[Pt+2]
- T/C (T/C endpoint: median survival time, dose: 10.0 mg/kg/injection, schedule: Q04DX003 (ip), vehicle: saline): 128 and 146 % of control

Compound: Cc1cc(N=Nc2ccc(S(=O)(=O)[O-])cc2)cc(C(=O)[O-])c1[OH2+].Cc1cc(N=Nc2ccc(S(=O)(=O)[O-])cc2)cc(C(=O)[O-])c1[OH2+].NC1CCCCC1N.[Na+].[Pt+4]
- T/C (T/C endpoint: median survival time, dose: 3.12 mg/kg/injection, schedule: Q04DX003 (ip), vehicle: saline with Tween-80): 149 % of control
- T/C (T/C endpoint: median survival time, dose: 3.12 mg/kg/injection, schedule: Q04DX003 (ip), vehicle: saline): 140 % of control
- T/C (T/C endpoint: median survival time, dose: 50.0 mg/kg/injection, schedule: Q04DX003 (ip), vehicle: saline): 148 % of control
- survivor count (T/C endpoint: median survival time, dose: 100.0 mg/kg/injection, schedule: Q04DX003 (ip), vehicle: saline with Tween-80): 6 of 6
- survivor count (T/C endpoint: median survival time, dose: 200.0 mg/kg/injection, schedule: Q04DX003 (ip), vehicle: saline with Tween-80): 1 of 6

Compound: CN(C)N=Nc1c(F)c(F)c(C(N)=O)c(F)c1F
- T/C (T/C endpoint: mean survival time, dose: 12.5 mg/kg/injection, schedule: Q01DX009 (ip), vehicle: other): 127 % of control
- T/C (T/C endpoint: mean survival time, dose: 25.0 mg/kg/injection, schedule: Q01DX009 (ip), vehicle: other): 125 and 135 % of control
- T/C (T/C endpoint: mean survival time, dose: 50.0 mg/kg/injection, schedule: Q01DX009 (ip), vehicle: other): 129 % of control [5 of 6 alive]
- survivor count (T/C endpoint: mean survival time, dose: 100.0 mg/kg/injection, schedule: Q01DX009 (ip), vehicle: other): 3 of 6
- survivor count (T/C endpoint: mean survival time, dose: 200.0 mg/kg/injection, schedule: Q01DX009 (ip), vehicle: other): 2 of 6
- survivor count (T/C endpoint: mean survival time, dose: 400.0 mg/kg/injection, schedule: Q01DX009 (ip), vehicle: other): 0 of 6

Compound: O=[As](O)(CC(O)c1ccccc1)c1ccccc1 (centres undefined)
- survivor count (T/C endpoint: mean survival time, dose: 25.0 mg/kg/injection, schedule: Q01DX001 (ip), vehicle: saline with Tween-80): 3 of 6
- survivor count (T/C endpoint: mean survival time, dose: 50.0 mg/kg/injection, schedule: Q01DX001 (ip), vehicle: saline with Tween-80): 0 of 6
- survivor count [4]: 0 of 6

Compound: N#Cc1ccccc1NN=NCc1ccccc1
- survivor count [5]: 6 of 6

Compound: O=C(CCCN1CCC(O)CC1)c1ccccc1
- survivor count [6]: 3 of 6

Compound: O=C(CCBr)NCNC(=O)CCBr
- T/C (T/C endpoint: mean survival time, dose: 100.0 mg/kg/injection, schedule: Q01DX009 (ip), vehicle: saline with Tween-80): 129 % of control

Compound: CN(CCOS(C)(=O)=O)CCOS(C)(=O)=O
- T/C (T/C endpoint: mean survival time, dose: 1.5 mg/kg/injection, schedule: Q01DX001 (ip), vehicle: saline): 149 % of control
- survivor count (T/C endpoint: mean survival time, dose: 3.0 mg/kg/injection, schedule: Q01DX001 (ip), vehicle: saline): 1 of 4
- T/C (T/C endpoint: mean survival time, dose: 3.37 mg/kg/injection, schedule: Q01DX001 (ip), vehicle: saline): 132 % of control
- survivor count (T/C endpoint: mean survival time, dose: 6.0 mg/kg/injection, schedule: Q01DX001 (ip), vehicle: saline): 0 of 4

Compound: O=C(Sc1ccccc1)C(CO)c1ccccc1 (centres undefined)
- survivor count (T/C endpoint: mean survival time, dose: 100.0 mg/kg/injection, schedule: Q04DX002 (ip), vehicle: saline with Tween-80): 2 of 3
- survivor count (T/C endpoint: mean survival time, dose: 200.0 mg/kg/injection, schedule: Q04DX002 (ip), vehicle: saline with Tween-80): 1 of 3
- survivor count (T/C endpoint: mean survival time, dose: 400.0 mg/kg/injection, schedule: Q04DX002 (ip), vehicle: saline with Tween-80): 0 of 3

Compound: CCCCCCCCOC(=O)c1cc([N+](=O)[O-])c(Cl)c([N+](=O)[O-])c1
- survivor count [7]: 3 of 6
- survivor count [8]: 0 of 6

Compound: NCCSc1ccccc1
- survivor count [6]: 0 of 6

Compound: C[n+]1ccc(/C=C\Nc2ccccn2)cc1
- survivor count (T/C endpoint: mean survival time, dose: 300.0 mg/kg/injection, schedule: Q01DX001 (ip), vehicle: saline): 2 of 6

Compound: CC(CCOP(N)(=O)N(CCCl)CCCl)OCc1ccccc1 (centres undefined)
- T/C (T/C endpoint: mean survival time, dose: 200.0 mg/kg/injection, schedule: Q01DX001 (ip), vehicle: other): 133 % of control
- T/C (T/C endpoint: mean survival time, dose: 400.0 mg/kg/injection, schedule: Q01DX001 (ip), vehicle: other, evaluated on day 30): 132 % of control [5 of 6 alive]
- T/C (T/C endpoint: mean survival time, dose: 400.0 mg/kg/injection, schedule: Q01DX001 (ip), vehicle: other, evaluated on day 50): 137 % of control

Compound: O=S(=O)(F)c1cccc(Cl)c1C[P+](c1ccccc1)(c1ccccc1)c1ccccc1
- survivor count (T/C endpoint: mean survival time, dose: 50.0 mg/kg/injection, schedule: Q01DX001 (ip), vehicle: Klucel (hydroxypropylcellulose) (HPC)): 3 of 6

Compound: O=C(c1ccc2c(c1)OCO2)c1ccc[nH]1
- survivor count [8]: 6 of 6

Compound: Cc1cccnc1N.[Cl-].[Cl-].[Cl-].[Cl-].[Pt+2]
- survivor count (T/C endpoint: mean survival time, dose: 87.5 mg/kg/injection, schedule: Q04DX003 (ip), vehicle: saline with Tween-80): 3 of 3
- survivor count (T/C endpoint: mean survival time, dose: 175.0 mg/kg/injection, schedule: Q04DX003 (ip), vehicle: saline with Tween-80): 0 of 3
- survivor count (T/C endpoint: mean survival time, dose: 350.0 mg/kg/injection, schedule: Q04DX003 (ip), vehicle: saline with Tween-80): 0 of 3

Compound: C=CC(C)(C)n1cc(C2=C(O)C(=O)C(c3cn(C(C)(C)C=C)c4ccccc34)=C(O)C2=O)c2ccccc21
- T/C (T/C endpoint: mean survival time, dose: 40.0 mg/kg/injection, schedule: Q01DX009 (ip), vehicle: carboxymethylcellulose (CMC)): 126 % of control
- T/C (T/C endpoint: median survival time, dose: 80.0 mg/kg/injection, schedule: Q01DX009 (ip), vehicle: Klucel (hydroxypropylcellulose) (HPC)): 128 and 142 % of control
- T/C [9]: 125 % of control
- survivor count [9]: 4 of 6

Compound: Cc1cccc(C)c1NC(=O)CCl
- survivor count [10]: 0 of 6

Compound: O=c1/c(=C/c2ccccc2)c2cccc3cccc1c32
- survivor count [4]: 2 of 3
- survivor count [5]: 0 of 3
- survivor count [10]: 0 of 3

Compound: Nc1nc(N)n(-c2ccccn2)n1
- survivor count (T/C endpoint: mean survival time, dose: 300.0 mg/kg/injection, schedule: Q01DX001 (ip), vehicle: other): 3 of 6

Compound: C=C1CC(=O)N(c2cccc(C)c2)C1=O
- survivor count (T/C endpoint: mean survival time, dose: 100.0 mg/kg/injection, schedule: Q04DX003 (ip), vehicle: saline with Tween-80): 2 of 6
- survivor count [7]: 0 of 6
- survivor count [8]: 0 of 6

Compound: CCOC(=O)Nc1cc(N)c2[nH]cnc2n1
- survivor count (T/C endpoint: mean survival time, dose: 200.0 mg/kg/injection, schedule: Q01DX001 (ip), vehicle: carboxymethylcellulose (CMC)): 3 of 6
- survivor count (T/C endpoint: mean survival time, dose: 400.0 mg/kg/injection, schedule: Q01DX001 (ip), vehicle: carboxymethylcellulose (CMC)): 0 of 6

Compound: Nc1cccc2scnc12
- survivor count (T/C endpoint: mean survival time, dose: 400.0 mg/kg/injection, schedule: Q01DX009 (ip), vehicle: saline with Tween-80): 4 of 6
